# Primary screen of a compound library

Mtb glucose medium: 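Growth of Mycobacterium tuberculosis over 3 days (7H9 medium with glucose and tyloxapol); the read-out is not stated. Tested at 50 µM. Direction is inferred from retests: higher values go with more growth inhibition. Of about 69,000 compounds tested this way, about 760 (1.1%) reached 50% or more in at least one test.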
Mtb cholesterol medium: 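Growth of Mycobacterium tuberculosis over 4 days (cholesterol / DPPC medium with tyloxapol); the read-out is not stated. Concentration: 50 µM. Higher reads as more growth inhibition (inferred: compounds with an IC50 in retests scored well above the rest). About 69,000 compounds were tested under these conditions; 0.54% (about 370) showed 50% or more at least once.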

Each number is a percent effect as filed.
How 0% and 100% were set is not recorded. Most values in the screen are low, and negative values occur.
This is an unselected part of the compounds tested.
Two or more numbers in one place are separate tests of the same structure; such repeats can differ widely.

- CCCc1nc(CNC(C)Cn2cccn2)cs1 (stereo not shown) : Mtb glucose medium: -11.04%; Mtb cholesterol medium: -9.613%
- CNS(=O)(=O)CC(=O)N(Cc1c(F)cccc1Cl)C1CC1 : Mtb glucose medium: 16.26%; Mtb cholesterol medium: -6.095%
- O=C(O)C(F)(F)F.O[C@@H]1CCN(CC2CCOC2)[C@H]1Cc1ccccc1 (stereo partly shown) : Mtb glucose medium: -25.93% and -4.297%; Mtb cholesterol medium: -0.7772%
- O=C(O)C(F)(F)F.[H][C@@]12CCN(CC(=O)NC)C[C@]1([H])CN(C(=O)c1cccn1C)C2 : Mtb glucose medium: 7.764%; Mtb cholesterol medium: 10.37%
- Cc1nn(C)c2c(NCc3cccnc3)nc(C3CC3)nc12 : Mtb glucose medium: -5.74%; Mtb cholesterol medium: -12.36%
- CCOc1ccc(CN2C(=O)CC(C)(C(C)C)C2=O)nc1 (stereo not shown) : Mtb glucose medium: 4.203% and 9.577%; Mtb cholesterol medium: 10.03%
- O=C(O)C(F)(F)F.O=C(O)C(F)(F)F.O=C(O)C(F)(F)F.c1cc(CNCC2OCCc3cn(CC4CCOCC4)nc32)ccn1 (stereo not shown) : Mtb glucose medium: -17.02%; Mtb cholesterol medium: -28.67%
- O=C(Cn1cccn1)NCC1CCCN(Cc2ccccc2)C1 (stereo not shown) : Mtb glucose medium: 14.9% and -5.478%; Mtb cholesterol medium: 14.04%
- CN(Cc1cccc(F)c1)C1CCN(CCc2ccccn2)CC1 : Mtb glucose medium: -6.27%; Mtb cholesterol medium: 5.997%
- O=C(C[S+]([O-])Cc1c(F)cccc1Cl)N1CCc2sccc2C1 (stereo not shown) : Mtb glucose medium: 3.287%; Mtb cholesterol medium: -15.14%
- O=C(Cn1cccc1)NCC1CCN(Cc2cc3ccccc3[nH]2)C1 (stereo not shown) : Mtb glucose medium: 16.94%; Mtb cholesterol medium: 2.263%
- [H][C@]12CC[C@]([H])(CN(CC(=O)N(C)C)C1)N(C(=O)CCn1nccc1C)C2 : Mtb glucose medium: -18.12% and -2.183%; Mtb cholesterol medium: -26.56%
- Cc1csc(N2CCN(Cc3ccn(C)c(=O)c3)CC2)n1 : Mtb glucose medium: -45.4%; Mtb cholesterol medium: -15.65%
- Cc1noc(C(C)C)c1C(=O)NCC1CCCN1Cc1ccccc1 (stereo not shown) : Mtb glucose medium: -0.1877%; Mtb cholesterol medium: 22.84%
- CC(C)Cc1nc(OCC(N)=O)c(C#N)c2c1CCC2 : Mtb glucose medium: -16.53%; Mtb cholesterol medium: -23.77%
- CN(CCNC(=O)c1cccnc1)S(C)(=O)=O : Mtb glucose medium: 3.128%; Mtb cholesterol medium: 23.57%
- CN(Cc1ccc(Cl)c(Cl)c1)C(=O)CNC(N)=O : Mtb glucose medium: 3.978% and -0.3961%; Mtb cholesterol medium: -12.48%
- O=C(CN1CCCCC1Cn1cncn1)Nc1ccncc1 (stereo not shown) : Mtb glucose medium: -55.47%; Mtb cholesterol medium: -20.85%
- Cc1cccc(CN2CCC(n3cc(CCO)nn3)CC2)c1C : Mtb glucose medium: 23.26%; Mtb cholesterol medium: 1.073% and -16.95%
- O=C(c1cc2ccccc2c(=O)[nH]1)N1CCN(CCO)CC1 : Mtb glucose medium: -17.4%; Mtb cholesterol medium: -8.537%
- COc1ccc(CN[C@H]2CC[C@@]3(CCC(=O)N3)CC2)cc1.O=C(O)C(F)(F)F : Mtb glucose medium: -1.914%; Mtb cholesterol medium: 6.57%
- CCn1nnc(NCc2ccc(-c3ccc(Br)cc3)o2)n1 : Mtb glucose medium: 33.54% and 60.24%; Mtb cholesterol medium: 48.42%
- Cc1cc(N2CCC3(CCCN(CCO)C3=O)C2)nc2ccccc12 (stereo not shown) : Mtb glucose medium: -5.92%; Mtb cholesterol medium: -2.812%
- CC(=O)N1CCCC(C(=O)NCCc2nc(Cc3ccccc3)no2)C1 (stereo not shown) : Mtb glucose medium: 4.622% and 2.279%; Mtb cholesterol medium: 10.66%
- CCc1nc2n(n1)CC(NCC(=O)Nc1cc(C)on1)CC2 (stereo not shown) : Mtb glucose medium: -11.06%; Mtb cholesterol medium: 5.067%
- Cc1occc1C(=O)N1CCCC(c2nncn2C)C1 (stereo not shown) : Mtb glucose medium: 14.11%; Mtb cholesterol medium: 0.1728%
- Cc1nsc(NC(=O)NC2CCCN(C)C2)n1 (stereo not shown) : Mtb glucose medium: -1.909% and 20.35%; Mtb cholesterol medium: 10.9%
- O=C(C1CCCN1S(=O)(=O)C1CCCC1)N1CCSCC1 (stereo not shown) : Mtb glucose medium: -30.7% and -8.898%; Mtb cholesterol medium: -2.73%
- COc1nn(C)cc1C(=O)N1CCC(c2nnc(C3CC3)o2)CC1 : Mtb glucose medium: 24.12%; Mtb cholesterol medium: 2.685%
- CCOc1ccccc1C(C(=O)O)N(C)Cc1nnc(C)o1 (stereo not shown) : Mtb glucose medium: 23.11%; Mtb cholesterol medium: 0.4711%
- Cn1nc2c(cc1=O)CN(Cc1nc(-c3ccsc3)no1)CC2 : Mtb glucose medium: -18.99%; Mtb cholesterol medium: -7.694%
- Cc1c[nH]c(CN2CCOC(c3ccc(F)cc3)C2)c(C)c1=O (stereo not shown) : Mtb glucose medium: -0.9193%; Mtb cholesterol medium: -20.11%
- COCC(O)CN1CCC(=O)N(CC2CC2)Cc2ccccc21 (stereo not shown) : Mtb glucose medium: -3.919%; Mtb cholesterol medium: -3.337%
- CC(C)(C)c1ncc(C(=O)NCCn2ccnc2)s1 : Mtb glucose medium: -22.48%; Mtb cholesterol medium: 21.22%
- CN(C)C(=O)C1CN(Cc2cccs2)CCN(S(C)(=O)=O)C1 (stereo not shown) : Mtb glucose medium: 14.74%; Mtb cholesterol medium: -1.167%
- O=C(Nc1ccccc1F)C1=NN(c2ccccc2)C(=O)CN1 : Mtb glucose medium: -46.5%; Mtb cholesterol medium: -5.453%
- CCN(CC)C(=O)CSc1ccc(C(F)(F)F)cn1 : Mtb glucose medium: 10.97% and -1.58%; Mtb cholesterol medium: 8.86%
- COc1ccc(CCN2CCCC(CN(C)Cc3[nH]cnc3C)C2)cc1 (stereo not shown) : Mtb glucose medium: 32.82%; Mtb cholesterol medium: 17.42%
- Cc1cc2cc(CNC3CCN(CC4CCOC4)CC3)oc2cc1C (stereo not shown) : Mtb glucose medium: 26.22%; Mtb cholesterol medium: 13.22%
- CC1=Nc2c(c(O)nn2C(C)C)C(c2cnn(C)c2)S1 (stereo not shown) : Mtb glucose medium: 15.34%; Mtb cholesterol medium: -2.261%
- CC(NC(=O)c1ccc(Cl)cc1)c1nnc(SCC(=O)O)n1C (stereo not shown) : Mtb glucose medium: -60.87%; Mtb cholesterol medium: -10.35%
- [H][C@]12CCCCN1CCC[C@H]2CNC(=O)Cn1ccc2cc(OC)ccc21 : Mtb glucose medium: 16.43%; Mtb cholesterol medium: 16.06%
- Br.Cc1ccccc1OC1CCN(CC(=O)Nc2cnn(C)c2C)CC1 : Mtb glucose medium: 14.49%; Mtb cholesterol medium: -13.59%

For reference, 3 entries once more:

- O=C(O)C(F)(F)F.O[C@@H]1CCN(CC2CCOC2)[C@H]1Cc1ccccc1 (stereo partly shown) : Mtb glucose medium: -25.93% and -4.297%; Mtb cholesterol medium: -0.7772%
- O=C(CN1CCCCC1Cn1cncn1)Nc1ccncc1 (stereo not shown) : Mtb glucose medium: -55.47%; Mtb cholesterol medium: -20.85%
- COc1ccc(CCN2CCCC(CN(C)Cc3[nH]cnc3C)C2)cc1 (stereo not shown) : Mtb glucose medium: 32.82%; Mtb cholesterol medium: 17.42%

From ChEMBL document CHEMBL3988442, “University of Dundee, Small-Polar-MMV Screening Library” (2021).